test system: lectin pathway; experiment: WIELISA lectin pathway activation in diluted normal human serum; type: biochemical; settings: lectin pathway IC50 in diluted human serum over KI on human MASP-2

Row | Substance | IC50/KI
1 | SEQ ID NO: 11: TFPI-D2 variant protein with inhibitor loop FCRAVKR (SEQ ID NO: 1) (KPDFCFLEEDPGFCRAVKRRYFYNNQTKQCERFKYGGCLGNMNNFETLEECKNICEDG; Modified Kunitz domain protein) | 17.5
2 | SEQ ID NO: 14: TFPI-D2 variant protein with inhibitor loop PCRAVKR (SEQ ID NO: 4) (KPDFCFLEEDPGPCRAVKRRYFYNNQTKQCERFKYGGCLGNMNNFETLEECKNICEDG; Modified Kunitz domain protein) | 11.4
3 | SEQ ID NO: 17: TFPI-D2 variant protein with inhibitor loop VCRAVKR (SEQ ID NO: 7) (KPDFCFLEEDPGVCRAVKRRYFYNNQTKQCERFKYGGCLGNMNNFETLEECKNICEDG; Modified Kunitz domain protein) | 10.4
4 | SGMI-2 (GSGEVTCEPGTTFKDKCNTCRCGSDGKSAVCTKLWCNQ; Synthetic protein of insect origin) [reference compound] | 29

Source: patent publication US20200131249A1, “NOVEL PROTEINS AND USE THEREOF” (EVOLVERITAS KFT., priority 2017, published 2020)
